# Source: the supplement of paper PMC8728848
# The list shows a part of the results.
# Tests used:
# Assay in all cases: glycan array binding signal (z-score within array); higher = stronger binding
# Conditions in all cases: glycan notation: IUPAC condensed, linker removed
# [1] = biological target: Fuc(a1-3)[Gal3S(b1-4)]GlcNAc
# Outline: (§1)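 The Consortium for Functional Glycomics database supplied 3228 glycan arrays, of which those lacking an available protein sequence were dropped. The binding signal, a within-array Z-score, was averaged across arrays of the same protein sequence and across linkers. Negative scores can be read as non-binding.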
# [2] = biological target: Fuc(a1-3)[Gal3S(b1-4)]GlcNAc6S
# Outline: as §1
# [3] = biological target: Fuc(a1-3)[GalNAc(b1-4)]GlcNAc
# Outline: as §1
# [4] = biological target: Fuc(a1-3)[GalNAc(b1-4)]GlcNAc6S
# Outline: as §1
# Fuc(a1-4)GlcNAc = biological target: Fuc(a1-4)GlcNAc
# Outline: as §1
# Fuc(b1-3)GlcNAc = biological target: Fuc(b1-3)GlcNAc
# Outline: as §1
# Gal(a1-2)Gal = biological target: Gal(a1-2)Gal
# Outline: as §1
# Gal(a1-3)Gal = biological target: Gal(a1-3)Gal
# Outline: as §1
# Gal(a1-3)Gal(b1-3)GlcNAc = biological target: Gal(a1-3)Gal(b1-3)GlcNAc
# Outline: as §1
# [5] = biological target: Gal(a1-3)Gal(b1-3)GlcNAc(b1-2)Man
# Outline: as §1
# [6] = biological target: Gal(a1-3)Gal(b1-3)GlcNAc(b1-2)Man(a1-3)[Gal(a1-3)Gal(b1-3)GlcNAc(b1-2)Man(a1-6)]Man(b1-4)GlcNAc(b1-4)GlcNAc
# Outline: as §1
# [7] = biological target: Gal(a1-3)Gal(b1-3)GlcNAc(b1-3)GalNAc
# Outline: as §1
# [8] = biological target: Gal(a1-3)Gal(b1-3)GlcNAc(b1-6)GalNAc
# Outline: as §1
# [9] = biological target: Gal(a1-3)Gal(b1-3)[Fuc(a1-4)]GlcNAc(b1-2)Man(a1-3)[Gal(a1-3)Gal(b1-3)[Fuc(a1-4)]GlcNAc(b1-2)Man(a1-6)]Man(b1-4)GlcNAc(b1-4)GlcNAc
# Outline: as §1
# Gal(a1-3)Gal(b1-4)Glc = biological target: Gal(a1-3)Gal(b1-4)Glc
# Outline: as §1
# Gal(a1-3)Gal(b1-4)GlcNAc = biological target: Gal(a1-3)Gal(b1-4)GlcNAc
# Outline: as §1
# [10] = biological target: Gal(a1-3)Gal(b1-4)GlcNAc(b1-2)Man
# Outline: as §1
# [11] = biological target: Gal(a1-3)Gal(b1-4)GlcNAc(b1-2)Man(a1-3)[Gal(a1-3)Gal(b1-4)GlcNAc(b1-2)Man(a1-6)]Man(b1-4)GlcNAc(b1-4)GlcNAc
# Outline: as §1
# [12] = biological target: Gal(a1-3)Gal(b1-4)GlcNAc(b1-3)GalNAc
# Outline: as §1
# [13] = biological target: Gal(a1-3)Gal(b1-4)GlcNAc(b1-6)GalNAc
# Outline: as §1
# [14] = biological target: Gal(a1-3)Gal(b1-4)[Fuc(a1-3)]GlcNAc
# Outline: as §1
# [15] = biological target: Gal(a1-3)Gal(b1-4)[Fuc(a1-3)]GlcNAc(b1-2)Man(a1-3)[Gal(a1-3)Gal(b1-4)[Fuc(a1-3)]GlcNAc(b1-2)Man(a1-6)]Man(b1-4)GlcNAc(b1-4)GlcNAc
# Outline: as §1
# Gal(a1-3)GalNAc = biological target: Gal(a1-3)GalNAc
# Outline: as §1
# [16] = biological target: Gal(a1-3)[Gal(a1-4)]Gal(b1-4)GlcNAc
# Outline: as §1
# [17] = biological target: Gal(a1-4)Gal(b1-3)GlcNAc(b1-2)Man(a1-3)[Gal(a1-4)Gal(b1-3)GlcNAc(b1-2)Man(a1-6)]Man(b1-4)GlcNAc(b1-4)GlcNAc
# Outline: as §1
# Gal(a1-4)Gal(b1-4)Glc = biological target: Gal(a1-4)Gal(b1-4)Glc
# Outline: as §1
# Gal(a1-4)Gal(b1-4)GlcNAc = biological target: Gal(a1-4)Gal(b1-4)GlcNAc
# Outline: as §1
# [18] = biological target: Gal(a1-4)Gal(b1-4)GlcNAc(b1-2)Man(a1-3)[Gal(a1-4)Gal(b1-4)GlcNAc(b1-2)Man(a1-6)]Man(b1-4)GlcNAc(b1-4)GlcNAc
# Outline: as §1
# [19] = biological target: Gal(a1-4)Gal(b1-4)GlcNAc(b1-3)Gal(b1-4)Glc
# Outline: as §1
# Gal(a1-4)GlcNAc = biological target: Gal(a1-4)GlcNAc
# Outline: as §1
# Gal(a1-6)Glc = biological target: Gal(a1-6)Glc
# Outline: as §1
# Gal(b1-2)Gal = biological target: Gal(b1-2)Gal
# Outline: as §1
# Gal(b1-3)Gal = biological target: Gal(b1-3)Gal
# Outline: as §1
# Gal(b1-3)Gal(b1-4)GlcNAc = biological target: Gal(b1-3)Gal(b1-4)GlcNAc
# Outline: as §1
# Gal(b1-3)GalNAc = biological target: Gal(b1-3)GalNAc
# Outline: as §1
# [20] = biological target: Gal(b1-3)GalNAc(a1-3)[Fuc(a1-2)]Gal(b1-4)Glc
# Outline: as §1
# [21] = biological target: Gal(b1-3)GalNAc(a1-3)[Fuc(a1-2)]Gal(b1-4)GlcNAc
# Outline: as §1
# Gal(b1-3)GalNAc(b1-3)Gal = biological target: Gal(b1-3)GalNAc(b1-3)Gal
# Outline: as §1
# [22] = biological target: Gal(b1-3)GalNAc(b1-3)Gal(a1-4)Gal(b1-4)Glc
# Outline: as §1
# [23] = biological target: Gal(b1-3)GalNAc(b1-4)Gal(b1-4)Glc
# Outline: as §1
# [24] = biological target: Gal(b1-3)GalNAc(b1-4)[Neu5Ac(a2-3)]Gal(b1-4)Glc
# Outline: as §1
# Gal(b1-3)GlcNAc = biological target: Gal(b1-3)GlcNAc
# Outline: as §1
# [25] = biological target: Gal(b1-3)GlcNAc(a1-3)Gal(b1-4)GlcNAc
# Outline: as §1
# [26] = biological target: Gal(b1-3)GlcNAc(a1-6)Gal(b1-4)GlcNAc
# Outline: as §1
# Gal(b1-3)GlcNAc(b1-2)Man = biological target: Gal(b1-3)GlcNAc(b1-2)Man
# Outline: as §1
binder,measurement,setting,value
"DCIR1 (Mus musculus), Q9QZ15 (protein) MASEITYAEVKFKNESNSLHTYSESPAAPREKPIRDLRKPGSPSLLLTSLMLLLLLLAITFLVAFIIYFQKYSQLLEEKKAAKNIMHNELNCTKSVSPMEDKVWSCCPKDWRLFGSHCYLVPTVSSSASWNKSEENCSRMGAHLVVIQSQEEQDFITGILDTHAAYFIGLWDTGHRQWQWVDQTPYEESITFWHNGEPSSGNEKCATIIYRWKTGWGWNDISCSLKQKSVCQMKKINL",glycan array binding signal (z-score),[1],0.427
same,glycan array binding signal (z-score),[2],1.09
same,glycan array binding signal (z-score),[3],0.906
same,glycan array binding signal (z-score),[4],-0.626
same,glycan array binding signal (z-score),Fuc(a1-4)GlcNAc,-0.807
same,glycan array binding signal (z-score),Fuc(b1-3)GlcNAc,-0.096
same,glycan array binding signal (z-score),Gal(a1-2)Gal,-0.211
same,glycan array binding signal (z-score),Gal(a1-3)Gal,0.111
same,glycan array binding signal (z-score),Gal(a1-3)Gal(b1-3)GlcNAc,7.14
same,glycan array binding signal (z-score),[5],1.29
same,glycan array binding signal (z-score),[6],0.166
same,glycan array binding signal (z-score),[7],0.751
same,glycan array binding signal (z-score),[8],-0.283
same,glycan array binding signal (z-score),[9],-0.037
same,glycan array binding signal (z-score),Gal(a1-3)Gal(b1-4)Glc,-0.476
same,glycan array binding signal (z-score),Gal(a1-3)Gal(b1-4)GlcNAc,2.08
same,glycan array binding signal (z-score),[10],1.46
same,glycan array binding signal (z-score),[11],0.039
same,glycan array binding signal (z-score),[12],-0.346
same,glycan array binding signal (z-score),[13],-0.095
same,glycan array binding signal (z-score),[14],-0.171
same,glycan array binding signal (z-score),[15],2.31
same,glycan array binding signal (z-score),Gal(a1-3)GalNAc,-0.62
same,glycan array binding signal (z-score),[16],3.21
same,glycan array binding signal (z-score),[17],1.54
same,glycan array binding signal (z-score),Gal(a1-4)Gal(b1-4)Glc,0.74
same,glycan array binding signal (z-score),Gal(a1-4)Gal(b1-4)GlcNAc,0.433
same,glycan array binding signal (z-score),[18],-0.048
same,glycan array binding signal (z-score),[19],-0.366
same,glycan array binding signal (z-score),Gal(a1-4)GlcNAc,-0.313
same,glycan array binding signal (z-score),Gal(a1-6)Glc,-0.103
same,glycan array binding signal (z-score),Gal(b1-2)Gal,0.428
same,glycan array binding signal (z-score),Gal(b1-3)Gal,-0.894
same,glycan array binding signal (z-score),Gal(b1-3)Gal(b1-4)GlcNAc,-0.241
same,glycan array binding signal (z-score),Gal(b1-3)GalNAc,-0.601
same,glycan array binding signal (z-score),[20],-0.837
same,glycan array binding signal (z-score),[21],-0.591
same,glycan array binding signal (z-score),Gal(b1-3)GalNAc(b1-3)Gal,-0.492
same,glycan array binding signal (z-score),[22],0.592
same,glycan array binding signal (z-score),[23],0.215
same,glycan array binding signal (z-score),[24],2.65
same,glycan array binding signal (z-score),Gal(b1-3)GlcNAc,0.184
same,glycan array binding signal (z-score),[25],-0.863
same,glycan array binding signal (z-score),[26],-0.35
same,glycan array binding signal (z-score),Gal(b1-3)GlcNAc(b1-2)Man,0.223

# 14 entries from above, bar-delimited:
binder | measurement | setting | value
DCIR1 (Mus musculus), Q9QZ15 (protein) MASEITYAEVKFKNESNSLHTYSESPAAPREKPIRDLRKPGSPSLLLTSLMLLLLLLAITFLVAFIIYFQKYSQLLEEKKAAKNIMHNELNCTKSVSPMEDKVWSCCPKDWRLFGSHCYLVPTVSSSASWNKSEENCSRMGAHLVVIQSQEEQDFITGILDTHAAYFIGLWDTGHRQWQWVDQTPYEESITFWHNGEPSSGNEKCATIIYRWKTGWGWNDISCSLKQKSVCQMKKINL | glycan array binding signal (z-score) | Gal(a1-3)Gal(b1-4)Glc | -0.476
same | glycan array binding signal (z-score) | Gal(a1-3)Gal(b1-4)GlcNAc | 2.08
same | glycan array binding signal (z-score) | [10] | 1.46
same | glycan array binding signal (z-score) | [11] | 0.039
same | glycan array binding signal (z-score) | [12] | -0.346
same | glycan array binding signal (z-score) | [13] | -0.095
same | glycan array binding signal (z-score) | [14] | -0.171
same | glycan array binding signal (z-score) | [15] | 2.31
same | glycan array binding signal (z-score) | Gal(a1-3)GalNAc | -0.62
same | glycan array binding signal (z-score) | [16] | 3.21
same | glycan array binding signal (z-score) | [17] | 1.54
same | glycan array binding signal (z-score) | Gal(a1-4)Gal(b1-4)Glc | 0.74
same | glycan array binding signal (z-score) | Gal(a1-4)Gal(b1-4)GlcNAc | 0.433
same | glycan array binding signal (z-score) | [18] | -0.048
